Reference: patent publication US4816449A (Immunetech Pharmaceuticals, priority 1986, dated 1989)
Strings that start with PEPTIDE1 are HELM notation: dots part the residues, brackets hold end groups and non-standard residues. Where no end group is shown, it is not given here. The star is where a group is joined. Boc = CC(C)(C)OC(=O)*

Assay: solution-phase peptide synthesis
Conditions: late stage modification step

Row | Substance | step yield
1 | Asp-Thr-Asp-Pro-Arg | about 60-80%
2 | Boc-DTDPR | about 40-60%

Same assay, conditions: whole synthesis, overall

Row | Substance | isolated yield
3 | Asp-Ser-Asp-Ala-Arg | about 25%
4 | Asp-Thr-Asp-Pro-Arg | approximately 20%
5 | PEPTIDE1{D.S.D.P.R}$$$$V2.0 | about 18%
6 | PEPTIDE1{D.S.E.P.R}$$$$V2.0 | about 20%
